This is an account of results in article PMC5490264.

Protein sequences, listed by entry. Tags and fused reporters are not part of them.
UniProt Q79NI3: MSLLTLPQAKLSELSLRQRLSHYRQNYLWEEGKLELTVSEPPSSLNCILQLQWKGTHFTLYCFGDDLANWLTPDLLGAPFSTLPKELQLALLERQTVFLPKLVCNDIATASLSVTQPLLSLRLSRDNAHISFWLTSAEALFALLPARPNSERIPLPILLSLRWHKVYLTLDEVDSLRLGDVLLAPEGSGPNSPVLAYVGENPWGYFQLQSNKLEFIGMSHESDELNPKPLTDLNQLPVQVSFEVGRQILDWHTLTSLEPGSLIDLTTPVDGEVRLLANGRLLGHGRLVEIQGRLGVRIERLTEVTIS
UniProt Q01253: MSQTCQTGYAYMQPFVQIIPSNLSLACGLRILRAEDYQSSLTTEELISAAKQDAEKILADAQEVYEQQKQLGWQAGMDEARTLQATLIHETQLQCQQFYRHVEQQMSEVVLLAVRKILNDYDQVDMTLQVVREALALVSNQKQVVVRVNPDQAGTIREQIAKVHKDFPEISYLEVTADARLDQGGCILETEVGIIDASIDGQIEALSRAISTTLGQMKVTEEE

Results are given in words; binding and its absence hold for the method and conditions named. In cells and extracts the contact can be indirect. These calls come from enrichment with a bait or labelling near it, and not all partners need be listed.

The target in the experiment is Halo-YscQ (Yersinia enterocolitica) (UniProt Q79NI3). The experiment in a line: affinity purification with mass spectrometry; Halo-tagged bait covalently bound to Magne HaloTag beads from lysate of Y. enterocolitica (otherwise WT strain; non-secreting, 5 mM CaCl2, and secreting, 5 mM EDTA, conditions); HaloTag purification buffer with MgCl2, 2 h at 4 °C; partners eluted at 95 °C in SDS buffer; LC-MS/MS, label-free quantification against the untagged WT control.

For Halo-YscQ (from UniProt Q79NI3 1-307), the binding entry is on record as “binds”.
Consider YscL (from UniProt Q01253 1-223), for which the binding entry is recorded as “binds”.
